The values are deposited in ChEMBL (CHEMBL3988442, “University of Dundee, Small-Polar-MMV Screening Library” (2021)).

Results are given as percent effect. The controls that fix the scale are not given in the record; negative values are as filed. This is an unselected part of the compounds tested.

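Whole-cell assay for inhibitors of Mycobacterium tuberculosis growth, labelled Cornell in the record; the read-out is not stated. The concentration is filed as 10 mM, unlikely as a test dose, so the dose is not known. Higher means stronger inhibition (inferred from two other growth screens of the library). Of about 53,000 compounds tested this way, about 900 (1.7%) reached 50% or more in at least one test.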

| # | structure | effect |
|---|---|---|
| 1 | `O=C(c1ccco1)N1CCC2(CCC(=O)N2Cc2cccc(F)c2)CC1` | 5.279 |
| 2 | `CN(c1ccncn1)C1CC2(CCN(C(=O)c3cccs3)C2)C1` (stereo not given) | -4.665 |
| 3 | `CCOc1ncnc2c1CCN(C(=O)CN(C)C)CC2.O=C(O)C(F)(F)F` | 11.2 |
| 4 | `O=C(C1CN(CC2CC2)CC12CCOCC2)N1CCOCC1.O=C(O)C(F)(F)F` (stereo not given) | 27.5 |
| 5 | `[H][C@]12CCN(C(=O)N3CCCC3)C[C@@]1([H])OCCN(S(C)(=O)=O)C2` | 0.9606 |
| 6 | `CC(=O)NCCc1cc(N2CCN(C(C)=O)CC2)nc(C2CC2)n1` | -1.59 |
| 7 | `COc1cc2nc(C)n(CC(=O)NCCCO)c(=O)c2cc1OC` | -6.54 |
| 8 | `Cc1ncoc1C(=O)N1CCCC(c2ccc3c(N)nn(C)c3n2)C1` (stereo not given) | 35.24 |
| 9 | `Cc1ccc2c(cnn2CCC(=O)NCc2csc(C)n2)c1` | 14.72 |
| 10 | `CN(C)C(CNC(=O)c1ccc(-n2cnnn2)cc1)c1ccccc1Cl` (stereo not given) | 0.4227 |
| 11 | `O=C(NCCc1nnc2n1CCC2)NCC1(c2cccc(F)c2)CC1` | -38.47 |
| 12 | `CCOC(=O)C1CN(C(=O)COC)Cc2ncn(CC)c21` (stereo not given) | -30.13 |
| 13 | `CNC(=O)C1Cn2ccnc2C2(CCN(C(=O)NC3CCCC3)CC2)O1` (stereo not given) | 14.23 |
| 14 | `CC(=O)N1CCc2nc(C3CCN(c4ncccn4)C3)ncc2C1` (stereo not given) | -20.85 |
| 15 | `Cc1noc(C)c1CN(C)c1ncnc2onc(C)c12` | -6.658 |
| 16 | `c1ccc(CN2CCC(c3nccnc3-n3ccnc3)CC2)cc1` | -13.47 |
| 17 | `COc1ccc(N2CCN(CC(O)c3cc(C)ccc3C)CC2)cc1` (stereo not given) | 19.33 |
| 18 | `CC(O)CN1CCC(CNCc2c[nH]nc2C(C)(C)C)CC1` (stereo not given) | -19.74 |
| 19 | `COc1cc(OC)c(C2SCC(=O)Nc3n[nH]cc32)cc1OC` (stereo not given) | 33.67 |
| 20 | `COCC(=O)N1CCC(c2ccc(OC)cc2)C1` (stereo not given) | -20.43 |
| 21 | `COc1ccc(C)c2c1N(C(=O)c1cnc3onc(C)c3c1)CCC2` | 1.382 |
| 22 | `Oc1ccc(Cl)cc1CNCc1cccc(C(F)(F)F)c1` | 70.21 |
| 23 | `CCSCCC(C)N(C)C(=O)c1ccc(C)o1` (stereo not given) | 2.709 |
| 24 | `COCc1cccc(C(=O)N2CCN(C3=NCC(C)(C)S3)CC2)c1` | -2.928 |
| 25 | `COc1ncccc1C(=O)N1CCCC1c1nc(-c2ccccc2)no1` (stereo not given) | -7.479 |
| 26 | `COCC(=O)N1CCCC(C)(c2nncn2C)C1` (stereo not given) | 29.49 |
| 27 | `CCc1ccsc1C(=O)NC(Cc1ccccc1)C(N)=O` (stereo not given) | 13.63 |
| 28 | `COc1ccc(CC(=O)NCCCc2nnc3nc(C)cc(C)n23)cc1` | -52.99 |
| 29 | `Cc1cc2ccncc2n1CC1(O)CCN(C(=O)c2cccnc2)CC1` | 14.17 |
| 30 | `Cc1cccc(CN2CCC3(CCN(c4ncccn4)C3)C2=O)c1` (stereo not given) | 5.151 |
| 31 | `CCC(O)C1CCN(C(=O)Nc2nc(-c3ccccc3)ns2)CC1` (stereo not given) | -37.14 |
| 32 | `Cc1cccc(CCNC(=O)CCS(=O)(=O)C2CCCC2)c1` | 9.082 |
| 33 | `CSC1(CNc2ncc(Br)cn2)CCOCC1` | 9.481 |
| 34 | `Cc1cnccc1CN1CCN(C)C2(CCC(=O)N(CC3CC3)CC2)C1` (stereo not given) | 11.3 |
| 35 | `OCC(O)CSCc1nnc(-c2cccc(F)c2)o1` (stereo not given) | 4.722 |
| 36 | `Cc1nc2c(c(NCC(=O)NC(C)C)n1)Cc1ccccc1OC2` | 3.624 |
| 37 | `O=C(O)C(F)(F)F.[H][C@@]12CN(Cc3sccc3C)C[C@@H](C(=O)NCCOC)[C@]1([H])CCO2` | 10.41 |
| 38 | `O=C(NCc1ccc(F)cc1)NCC(O)(c1ccco1)C1CC1` (stereo not given) | -39.19 |
| 39 | `COc1cc(N2CC[C@@H](O)[C@@H]2Cc2ccccc2)ncn1` | -40.14 |
| 40 | `O=C1CCC2(CCCN(c3ncc(F)cn3)CC2)N1CC1CC1` (stereo not given) | 33.75 |
| 41 | `CC(=O)c1csc(-c2csc(Cn3ccc(=O)[nH]c3=O)n2)c1` | 23.85 |
| 42 | `CCCNc1ncc(-c2cc(C3CC3)nc(N)c2C#N)cn1` | 18.15 |
| 43 | `Cc1cnn(Cc2ccc(NC(=O)N3CCCCC3CO)cc2)c1` (stereo not given) | -41.4 |
| 44 | `CN1CCCN(C(=O)c2ccn3ccnc3c2)CC1` | -7.34 |
| 45 | `COc1ccc(CNC(=O)CCN2CCOC(C(F)(F)F)C2)cc1` (stereo not given) | 2.076 |
| 46 | `Cc1cnn(CC2CN(c3ccc(C#N)cn3)CCO2)c1` (stereo not given) | -12.65 |
| 47 | `COc1c(CNCCNC(=O)Cc2ccc(F)cc2)c(C)nn1C` | 4.247 |
| 48 | `NC(=O)CC1CC2(CCNCC2)c2cc(F)ccc21.O=C(O)C(F)(F)F` (stereo not given) | -2.205 |
| 49 | `O=C(Nc1ccccc1-c1ccccc1)NC1CCC2(C1)OCCO2` (stereo not given) | -13.27 |
| 50 | `CCCc1noc(C2CC(=O)N(CCN(C)C)C2)n1` (stereo not given) | -12.5 |
| 51 | `Cc1ccnn1CC(=O)N1CCN(C2CCc3ccccc3C2)CC1` (stereo not given) | -19.52 |
| 52 | `Cc1ncsc1C(=O)NC1CCN(CC(=O)N(C)C(C)(C)C#N)CC1` | 8.011 |
| 53 | `O=C(O)C(F)(F)F.O=C1COC2(CCN(CC3CCC3)CC2)CN1c1cncnc1` | 0.7065 |
| 54 | `Cc1cccc(CNCc2c(C(C)C)nn(C)c2N2CCOCC2)n1` | -10.71 |
| 55 | `[H][C@]12CCN(S(=O)(=O)c3ccc(C)cc3)[C@@]1([H])[C@@H](NC(=O)c1n[nH]cc1Cl)C2` | 7.839 |
| 56 | `O=C(CCO)N1CCOC2(CCCN(C(=O)c3ccco3)C2)C1` (stereo not given) | -29.4 |
| 57 | `Clc1ccc2[nH]c3c(c2c1)CCCC3c1nn[nH]n1` (stereo not given) | -7.374 |
| 58 | `CC(C)n1nc(Cn2cccc2)c2c1CN(C1CCOCC1)C2.O=C(O)C(F)(F)F` | 9.752 |
| 59 | `CC(C)NC(=O)CS(=O)(=O)Cc1cc(Cl)c2c(c1)OCCO2` | 18.51 |
| 60 | `CC(=O)N(C)c1nc(CN2CCCC2Cn2cncn2)cs1` (stereo not given) | 0.6865 |
| 61 | `c1cnn(CC2CCCCN2Cc2cn3ccsc3n2)c1` (stereo not given) | 15.13 |
| 62 | `O=C(O)C(F)(F)F.[H][C@]12CCC[C@@]1(COCc1ccccn1)CN(S(=O)(=O)N(C)C)C2` | -23.25 |
| 63 | `Cc1cc(C(=O)N(C)C)nc(C2(C)CCCN2c2ccnc(C)n2)n1` (stereo not given) | 14.16 |
| 64 | `C/C=C(\C)CN1C[C@H](NC(=O)c2cnc(O)cn2)C[C@H]1C(=O)NCC` | -5.8 |
| 65 | `CC(C)(C)NC(=O)N1CCC(NC(=O)Cc2cccnc2)CC1` | -30.58 |
| 66 | `CN(C)C(=O)Cn1c2c(ccc1=O)CCN(Cc1cnn(C)c1)CC2.O=C(O)C(F)(F)F` | -2.946 |
| 67 | `CC(C)Nc1cc(N2CCCC3(CN(C)C(=O)O3)C2)ncn1` (stereo not given) | -27.22 |
| 68 | `O=C1CC(c2ccc(C(=O)O)cc2)c2c(sc3c2CCCC3)N1` (stereo not given) | 27.59 |
| 69 | `COc1ccc(CNC(C)c2cccc(Cl)c2)c(OC)c1OC` (stereo not given) | -6.089 |
| 70 | `COCCC(=O)N1CC2(CCN(c3ccccc3)C2)C1` | -2.02 |
| 71 | `CC(=O)N1CCC2(CCN(CC3CCOC3)C2)CC1` (stereo not given) | 5.277 |
| 72 | `[H][C@@]12C[C@H](C(=O)N(C)C)[C@@]([H])(CN(S(=O)(=O)c3ccccc3)C1)O2` | 14.96 |
| 73 | `NC(=O)C1CCCN1Cc1cccc(NC(=O)c2ccsc2)c1` (stereo not given) | 1.526 |
| 74 | `O=C(Cc1c(F)cccc1Cl)Nc1cccc(N2CCCC2)c1` | 14.16 |
| 75 | `O=C(O)C(F)(F)F.O=C(O)C(F)(F)F.O=C(O)C(F)(F)F.[H][C@@]12CCN(Cc3ccncc3)C[C@]1([H])[C@@H](CN(C)Cc1ccco1)OC2` | 27.42 |
| 76 | `COc1ccc(-c2nc(C(=O)NCC3CCOC3)cs2)cc1OC` (stereo not given) | -22.07 |
| 77 | `N#Cc1ccc2c(c1)CN(C(=O)c1nc[nH]n1)C2c1cnco1` (stereo not given) | 26.68 |

The last 9 entries again:

structure	effect
COc1ccc(CNC(C)c2cccc(Cl)c2)c(OC)c1OC (stereo not given)	-6.089
COCCC(=O)N1CC2(CCN(c3ccccc3)C2)C1	-2.02
CC(=O)N1CCC2(CCN(CC3CCOC3)C2)CC1 (stereo not given)	5.277
[H][C@@]12C[C@H](C(=O)N(C)C)[C@@]([H])(CN(S(=O)(=O)c3ccccc3)C1)O2	14.96
NC(=O)C1CCCN1Cc1cccc(NC(=O)c2ccsc2)c1 (stereo not given)	1.526
O=C(Cc1c(F)cccc1Cl)Nc1cccc(N2CCCC2)c1	14.16
O=C(O)C(F)(F)F.O=C(O)C(F)(F)F.O=C(O)C(F)(F)F.[H][C@@]12CCN(Cc3ccncc3)C[C@]1([H])[C@@H](CN(C)Cc1ccco1)OC2	27.42
COc1ccc(-c2nc(C(=O)NCC3CCOC3)cs2)cc1OC (stereo not given)	-22.07
N#Cc1ccc2c(c1)CN(C(=O)c1nc[nH]n1)C2c1cnco1 (stereo not given)	26.68